The record followed here is article PMC11117807, “Comparative Study of Field-Effect Transistors Based on Graphene Oxide and CVD Graphene in Highly Sensitive NT-proBNP Aptasensors”.

For at least one entry, the source does not settle the construct or the ends of the probe. A weaker result is weaker than the reference pair of the same experiment.

The target in data set [1] is cardiac troponin I (cTnI) (UniProt P19429). Put plainly: aptamer-functionalised CVD graphene FET (GFET). To be noted: after long-term storage, low sensitivity; 5'-NH2; 0.01x PBS with Tween (1x PBS: 2.7 mM KCl, 137 mM NaCl, 10 mM phosphate, pH 7.4); LOD in artificial saliva; surface blocked with ethanolamine and BSA; commercial protein; single-stranded DNA.
Data set [2] has the same target. Put plainly: aptamer-functionalised rGO-FET. To be noted: after long-term storage, low sensitivity; 5'-NH2; 0.01x PBS with Tween (1x PBS: 2.7 mM KCl, 137 mM NaCl, 10 mM phosphate, pH 7.4); LOD in artificial saliva; surface blocked with ethanolamine and BSA; commercial protein; single-stranded DNA.

Turning to “GGCAGGAAGACAAACAGGTCGTAGTGGAAACTGTCCACCGTAGACCGGTTATCTAGTGGTCTGTGGTGCTGT [N20a aptamer]”, the binding result in data set [1] and in data set [2] was “binds more weakly” each time.
